Some of the results follow.
Experiments:
Experiment in all cases: log2 fold change, soluble protein after heating vs DMSO (PISA); higher = thermal stabilisation; K562 cells, 10 uM, 30 min; active = over 0.2 and 3.5 SD of the protein, either way, in both replicates (recomputed)
erlotinib = compound: C#Cc1cccc(Nc2ncnc3cc(OCCOC)c(OCCOC)cc23)c1 [erlotinib]
Method in brief: (§1)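 K562 cells at 2×10^6 cells/mL were given 10 μM compound for 30 min. Aliquots then went through 3 min of heating across 48°C-58°C, were pooled, and were extracted in PBS with 0.5% NP-40 at 4°C, and the supernatant after 21,000xg for 90 min was quantified by TMTpro 16plex LC-MS/MS with channel sums equalised. Thermal stability relative to control samples, from duplicates, is given as log2 fold change.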

By UniProt entry, the sequences of proteins in these tests, tags left out. Where a name states a change or a piece, a line headed by the entry shows the natural chain unless it says otherwise.
UniProt P17174: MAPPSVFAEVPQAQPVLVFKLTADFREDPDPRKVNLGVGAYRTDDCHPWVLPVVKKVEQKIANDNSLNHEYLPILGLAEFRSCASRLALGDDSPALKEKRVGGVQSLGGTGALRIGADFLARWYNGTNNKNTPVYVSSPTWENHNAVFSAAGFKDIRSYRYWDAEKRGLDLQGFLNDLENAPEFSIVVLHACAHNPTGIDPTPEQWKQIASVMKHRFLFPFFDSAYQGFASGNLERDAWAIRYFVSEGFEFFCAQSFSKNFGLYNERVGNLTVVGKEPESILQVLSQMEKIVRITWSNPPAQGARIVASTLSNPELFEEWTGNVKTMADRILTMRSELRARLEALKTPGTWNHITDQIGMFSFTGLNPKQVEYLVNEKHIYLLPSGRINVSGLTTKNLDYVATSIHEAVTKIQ
UniProt Q9BQ67, whole entry, looked up: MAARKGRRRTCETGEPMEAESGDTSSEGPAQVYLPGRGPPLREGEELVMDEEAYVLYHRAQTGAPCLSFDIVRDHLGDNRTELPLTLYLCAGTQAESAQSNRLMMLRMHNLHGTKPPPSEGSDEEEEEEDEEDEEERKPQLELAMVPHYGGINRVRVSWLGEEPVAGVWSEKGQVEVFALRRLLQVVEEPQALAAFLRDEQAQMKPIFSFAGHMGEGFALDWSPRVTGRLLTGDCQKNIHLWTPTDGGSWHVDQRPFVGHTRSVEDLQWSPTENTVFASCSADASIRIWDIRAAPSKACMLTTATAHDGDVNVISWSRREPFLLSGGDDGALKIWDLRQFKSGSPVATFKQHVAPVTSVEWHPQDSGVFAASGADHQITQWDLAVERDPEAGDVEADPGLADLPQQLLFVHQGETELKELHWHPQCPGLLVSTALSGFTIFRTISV
UniProt Q92990: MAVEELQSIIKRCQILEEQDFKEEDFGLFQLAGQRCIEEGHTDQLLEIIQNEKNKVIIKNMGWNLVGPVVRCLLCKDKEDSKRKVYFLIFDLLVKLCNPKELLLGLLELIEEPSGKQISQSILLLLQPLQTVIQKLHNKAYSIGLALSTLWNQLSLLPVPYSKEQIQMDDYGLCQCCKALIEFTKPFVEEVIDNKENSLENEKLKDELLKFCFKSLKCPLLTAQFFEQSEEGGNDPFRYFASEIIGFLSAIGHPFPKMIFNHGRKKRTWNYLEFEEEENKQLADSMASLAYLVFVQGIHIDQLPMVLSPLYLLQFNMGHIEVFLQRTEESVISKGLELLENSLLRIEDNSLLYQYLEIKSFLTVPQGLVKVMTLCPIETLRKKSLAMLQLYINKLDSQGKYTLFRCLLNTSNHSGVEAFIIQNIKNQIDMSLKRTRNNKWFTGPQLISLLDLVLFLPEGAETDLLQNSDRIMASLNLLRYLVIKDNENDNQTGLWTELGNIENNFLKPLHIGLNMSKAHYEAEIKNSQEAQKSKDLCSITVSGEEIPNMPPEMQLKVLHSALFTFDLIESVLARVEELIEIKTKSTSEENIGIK
UniProt Q08379: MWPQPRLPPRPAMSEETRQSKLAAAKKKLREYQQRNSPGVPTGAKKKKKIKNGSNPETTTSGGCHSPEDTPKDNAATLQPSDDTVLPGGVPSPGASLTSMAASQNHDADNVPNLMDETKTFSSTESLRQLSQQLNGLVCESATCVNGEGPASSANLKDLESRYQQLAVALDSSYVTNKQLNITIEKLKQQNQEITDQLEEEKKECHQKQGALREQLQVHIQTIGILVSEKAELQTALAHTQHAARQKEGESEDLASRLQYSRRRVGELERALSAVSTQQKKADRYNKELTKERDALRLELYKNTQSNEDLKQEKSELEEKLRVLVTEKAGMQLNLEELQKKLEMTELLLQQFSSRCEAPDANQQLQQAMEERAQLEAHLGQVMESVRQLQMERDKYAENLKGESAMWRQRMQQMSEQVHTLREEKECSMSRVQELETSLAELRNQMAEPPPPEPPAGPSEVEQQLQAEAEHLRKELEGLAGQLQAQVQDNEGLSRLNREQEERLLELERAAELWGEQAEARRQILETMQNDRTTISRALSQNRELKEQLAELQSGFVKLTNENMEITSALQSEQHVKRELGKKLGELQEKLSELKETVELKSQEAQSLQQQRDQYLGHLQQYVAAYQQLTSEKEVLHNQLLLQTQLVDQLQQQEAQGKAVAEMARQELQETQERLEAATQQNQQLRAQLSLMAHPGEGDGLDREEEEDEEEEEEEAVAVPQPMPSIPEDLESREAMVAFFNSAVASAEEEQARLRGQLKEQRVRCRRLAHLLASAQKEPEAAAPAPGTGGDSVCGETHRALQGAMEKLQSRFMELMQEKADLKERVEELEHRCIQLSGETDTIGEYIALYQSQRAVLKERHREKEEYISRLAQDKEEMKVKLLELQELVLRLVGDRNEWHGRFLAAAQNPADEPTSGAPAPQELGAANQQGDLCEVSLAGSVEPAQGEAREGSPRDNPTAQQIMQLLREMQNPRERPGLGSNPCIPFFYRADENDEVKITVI
UniProt Q13098: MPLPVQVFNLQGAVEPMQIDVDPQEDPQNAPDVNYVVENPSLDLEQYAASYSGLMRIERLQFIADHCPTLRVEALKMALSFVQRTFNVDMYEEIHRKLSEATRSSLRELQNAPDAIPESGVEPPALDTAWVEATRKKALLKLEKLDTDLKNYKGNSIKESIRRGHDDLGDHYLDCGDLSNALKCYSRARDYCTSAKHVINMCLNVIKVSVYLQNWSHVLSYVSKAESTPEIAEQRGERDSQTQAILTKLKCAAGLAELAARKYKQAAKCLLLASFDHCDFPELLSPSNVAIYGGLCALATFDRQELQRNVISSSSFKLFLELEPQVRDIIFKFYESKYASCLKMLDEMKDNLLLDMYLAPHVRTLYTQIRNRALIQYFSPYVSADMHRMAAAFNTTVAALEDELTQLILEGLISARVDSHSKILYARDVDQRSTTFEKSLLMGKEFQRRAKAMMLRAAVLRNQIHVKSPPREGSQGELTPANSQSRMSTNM
UniProt Q9BRT9, whole entry, looked up: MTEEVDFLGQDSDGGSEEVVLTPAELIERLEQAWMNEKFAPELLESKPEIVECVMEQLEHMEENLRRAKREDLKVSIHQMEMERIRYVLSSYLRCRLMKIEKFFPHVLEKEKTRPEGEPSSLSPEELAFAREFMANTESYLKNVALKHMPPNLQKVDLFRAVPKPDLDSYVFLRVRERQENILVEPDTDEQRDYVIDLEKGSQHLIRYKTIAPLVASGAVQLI
UniProt Q8TBA6: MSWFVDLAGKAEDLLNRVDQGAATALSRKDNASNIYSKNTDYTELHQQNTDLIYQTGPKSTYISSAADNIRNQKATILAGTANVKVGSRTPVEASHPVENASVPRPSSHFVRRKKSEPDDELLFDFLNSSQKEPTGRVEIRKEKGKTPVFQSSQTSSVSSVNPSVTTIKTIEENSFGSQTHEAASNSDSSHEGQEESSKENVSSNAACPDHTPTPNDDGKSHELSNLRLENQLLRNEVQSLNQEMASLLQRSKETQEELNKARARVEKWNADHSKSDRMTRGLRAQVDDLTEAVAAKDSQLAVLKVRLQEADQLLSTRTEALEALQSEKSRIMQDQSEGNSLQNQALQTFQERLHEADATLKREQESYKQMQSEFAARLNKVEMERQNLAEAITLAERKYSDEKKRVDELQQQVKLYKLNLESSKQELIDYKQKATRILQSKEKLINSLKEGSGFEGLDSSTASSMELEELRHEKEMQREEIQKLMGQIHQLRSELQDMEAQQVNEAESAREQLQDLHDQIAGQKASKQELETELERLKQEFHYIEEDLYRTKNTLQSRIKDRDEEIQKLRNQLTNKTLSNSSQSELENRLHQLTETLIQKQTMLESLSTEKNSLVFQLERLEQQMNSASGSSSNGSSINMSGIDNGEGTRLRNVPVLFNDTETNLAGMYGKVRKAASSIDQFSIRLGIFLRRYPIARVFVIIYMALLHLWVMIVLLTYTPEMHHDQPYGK
UniProt P06280: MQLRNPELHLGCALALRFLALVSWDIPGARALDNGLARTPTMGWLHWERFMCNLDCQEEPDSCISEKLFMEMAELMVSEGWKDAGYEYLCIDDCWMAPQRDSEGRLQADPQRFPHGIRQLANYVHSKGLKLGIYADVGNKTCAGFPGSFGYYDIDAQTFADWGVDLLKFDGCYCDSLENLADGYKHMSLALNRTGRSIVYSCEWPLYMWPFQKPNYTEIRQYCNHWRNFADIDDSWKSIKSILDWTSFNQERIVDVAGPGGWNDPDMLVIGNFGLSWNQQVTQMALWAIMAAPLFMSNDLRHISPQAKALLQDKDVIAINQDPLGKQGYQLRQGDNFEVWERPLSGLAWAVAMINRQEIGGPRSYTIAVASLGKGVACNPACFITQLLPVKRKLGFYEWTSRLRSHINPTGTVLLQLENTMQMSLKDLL
UniProt P60983, whole entry, looked up: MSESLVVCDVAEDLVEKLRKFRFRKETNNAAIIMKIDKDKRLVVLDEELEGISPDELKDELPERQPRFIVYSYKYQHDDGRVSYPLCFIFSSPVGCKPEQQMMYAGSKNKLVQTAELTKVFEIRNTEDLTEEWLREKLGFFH
UniProt Q5VW38: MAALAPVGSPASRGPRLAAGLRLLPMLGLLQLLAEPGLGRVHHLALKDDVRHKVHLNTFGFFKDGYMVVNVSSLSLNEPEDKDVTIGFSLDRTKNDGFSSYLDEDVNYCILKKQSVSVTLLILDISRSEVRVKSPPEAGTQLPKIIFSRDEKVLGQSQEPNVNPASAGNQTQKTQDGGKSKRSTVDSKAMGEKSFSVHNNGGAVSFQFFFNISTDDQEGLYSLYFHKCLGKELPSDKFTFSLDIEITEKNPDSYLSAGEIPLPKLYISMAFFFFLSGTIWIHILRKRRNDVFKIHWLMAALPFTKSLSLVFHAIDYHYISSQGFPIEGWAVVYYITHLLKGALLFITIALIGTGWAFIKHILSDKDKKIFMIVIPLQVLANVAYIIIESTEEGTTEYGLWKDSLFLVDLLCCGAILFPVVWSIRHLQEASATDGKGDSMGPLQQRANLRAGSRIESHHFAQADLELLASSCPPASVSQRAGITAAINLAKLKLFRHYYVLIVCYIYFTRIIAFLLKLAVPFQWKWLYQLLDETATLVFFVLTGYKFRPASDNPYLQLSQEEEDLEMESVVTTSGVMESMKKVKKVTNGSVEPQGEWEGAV
UniProt Q9HAV0, whole entry, looked up: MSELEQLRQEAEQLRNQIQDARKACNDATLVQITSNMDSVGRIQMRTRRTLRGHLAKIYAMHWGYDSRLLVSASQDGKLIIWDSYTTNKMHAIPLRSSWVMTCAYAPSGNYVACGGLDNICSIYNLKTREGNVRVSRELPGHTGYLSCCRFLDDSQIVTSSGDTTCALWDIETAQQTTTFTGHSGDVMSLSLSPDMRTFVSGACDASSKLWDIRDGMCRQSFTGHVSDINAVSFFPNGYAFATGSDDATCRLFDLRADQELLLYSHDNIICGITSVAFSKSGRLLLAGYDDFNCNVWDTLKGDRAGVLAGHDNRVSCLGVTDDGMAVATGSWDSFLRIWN
UniProt P36915, whole entry, looked up: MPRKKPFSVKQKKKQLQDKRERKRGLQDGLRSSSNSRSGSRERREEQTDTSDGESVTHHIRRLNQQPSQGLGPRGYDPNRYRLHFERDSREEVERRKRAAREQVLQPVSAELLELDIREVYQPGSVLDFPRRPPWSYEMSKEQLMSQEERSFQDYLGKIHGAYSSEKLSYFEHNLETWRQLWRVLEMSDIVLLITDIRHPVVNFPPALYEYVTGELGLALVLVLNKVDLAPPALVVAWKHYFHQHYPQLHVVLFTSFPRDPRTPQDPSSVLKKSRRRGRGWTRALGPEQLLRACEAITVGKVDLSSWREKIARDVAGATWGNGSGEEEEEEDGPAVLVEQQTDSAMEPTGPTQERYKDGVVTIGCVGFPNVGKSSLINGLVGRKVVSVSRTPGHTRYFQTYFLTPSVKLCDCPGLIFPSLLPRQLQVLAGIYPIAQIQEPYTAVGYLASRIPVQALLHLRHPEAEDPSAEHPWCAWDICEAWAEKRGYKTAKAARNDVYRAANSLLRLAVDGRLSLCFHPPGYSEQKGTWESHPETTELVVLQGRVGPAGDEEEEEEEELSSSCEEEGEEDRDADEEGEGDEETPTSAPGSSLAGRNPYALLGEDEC
UniProt Q9NPR9: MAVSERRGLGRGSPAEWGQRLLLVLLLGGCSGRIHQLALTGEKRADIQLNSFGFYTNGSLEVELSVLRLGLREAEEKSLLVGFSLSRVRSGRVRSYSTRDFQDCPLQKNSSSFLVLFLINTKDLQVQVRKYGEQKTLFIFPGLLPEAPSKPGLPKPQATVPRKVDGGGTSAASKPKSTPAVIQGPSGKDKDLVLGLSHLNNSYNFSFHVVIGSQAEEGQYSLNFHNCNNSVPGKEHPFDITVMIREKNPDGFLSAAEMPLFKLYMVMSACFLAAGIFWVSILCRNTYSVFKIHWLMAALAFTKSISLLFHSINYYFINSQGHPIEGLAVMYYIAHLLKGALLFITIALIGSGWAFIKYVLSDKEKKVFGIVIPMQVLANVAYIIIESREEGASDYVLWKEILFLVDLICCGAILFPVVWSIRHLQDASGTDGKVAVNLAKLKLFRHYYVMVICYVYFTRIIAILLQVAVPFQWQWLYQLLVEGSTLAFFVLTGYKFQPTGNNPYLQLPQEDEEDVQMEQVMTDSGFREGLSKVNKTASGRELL

[1] = compound: C/C(=N\NC(=O)C1=CC(=CC=C1)S(=O)(=O)N2CCOCC2)/C3=C(C=CC(=C3)Cl)O
Method in brief: as §1

[2] = compound: C1=CC(=C(C=C1Cl)C2=NC3=NC=CN=C3C(=N2)NC4=CC=NC=C4)F
Method in brief: as §1

[3] = compound: C1=CC(=CC=C1C2=NC3=C(N2)C=C(C=C3)C(=O)N)OC4=CC=C(C=C4)Cl
Method in brief: as §1

[4] = compound: C1=CC2=C(C=CC(=C2)/C=C\3/C(=O)NC(=NCC4=CC=CS4)S3)N=C1
Method in brief: as §1

[5] = compound: C1=CC2=NC=CN=C2C=C1/C=C/3\C(=O)NC(=O)S3
Method in brief: as §1

[6] = compound: C1=CC=C(C=C1)C2=NC(=C(N2)C3=CC=NC=C3)C4=CC(=C(C=C4)Cl)O
Method in brief: as §1

[7] = compound: C1=CC=C2C(=C1)C3=NNC4=CC=CC(=C43)C2=O
Method in brief: as §1

[8] = compound: C1CCN(C1)C(=O)NC2=CC=CC(=C2)NC3=NC=C(C(=N3)NCCC4=CN=CN4)Br
Method in brief: as §1

[9] = compound: C1CN(CCC1(CC2=CC=C(C=C2)Cl)N)C3=NC=NC4=C3C=CN4
Method in brief: as §1

Measured: log2 fold change

GPATCH8 (UniProt Q9UKJ3)
inactive: erlotinib -0.001 | [1] -0.02 | [2] 0.057 | [3] -0.049 | [4] 0.035 | [5] 0.052 | [6] -0.038 | [7] -0.01 | [8] -0.005 | [9] -0.026

GNA11 (UniProt P29992)
inactive: erlotinib 0.002 | [1] 0.058 | [2] 0 | [3] 0.046 | [4] 0.003 | [5] 0.006 | [6] 0.024 | [7] -0.032 | [8] -0.044 | [9] 0.037

GINS1 (UniProt Q14691)
inactive: erlotinib 0.017 | [1] 0.034 | [2] 0.086 | [3] 0.007 | [4] 0 | [5] 0.023 | [6] 0.072 | [7] -0.031 | [8] 0.007 | [9] 0.023

GOT1 (UniProt P17174)
inactive: erlotinib 0.004 | [1] -0.016 | [2] -0.016 | [3] -0.024 | [4] -0.002 | [5] -0.005 | [6] -0.012 | [7] 0.017 | [8] 0.002 | [9] 0.041

GMPR2 isoform 2 (UniProt Q9P2T1)
inactive: erlotinib 0.015 | [1] -0.003 | [2] 0.057 | [3] 0.009 | [4] 0.011 | [5] 0.033 | [6] -0.006 | [7] -0.039 | [8] -0.032 | [9] 0.038

GRWD1 (UniProt Q9BQ67)
inactive: erlotinib -0.112 | [1] -0.108 | [2] -0.4 | [3] 0.037 | [4] -0.058 | [5] -0.007 | [6] 0.022 | [7] -0.022 | [8] 0.178 | [9] -0.242

GOPC (UniProt Q9HD26)
inactive: erlotinib 0.016 | [1] 0.051 | [2] -0.284 | [3] -0.178 | [4] -0.027 | [5] -0.147 | [6] -0.008 | [7] 0.265 | [8] -0.036 | [9] 0.06

GLMN (UniProt Q92990)
inactive: erlotinib 0.014 | [1] 0.001 | [2] 0.029 | [3] -0.024 | [4] -0.001 | [5] 0.039 | [6] 0.001 | [7] -0.001 | [8] 0.015 | [9] -0.007

GNB1L (UniProt Q9BYB4)
inactive: erlotinib 0.007 | [1] 0.017 | [2] 0.103 | [3] 0.081 | [4] 0.003 | [5] 0.025 | [6] -0.003 | [7] -0.038 | [8] -0.039 | [9] 0.019

GSK3A (UniProt P49840)
inactive: erlotinib -0.02 | [1] 0.015 | [2] 0.01 | [3] 0.045 | [4] -0.001 | [5] -0.001 | [6] 0.18 | [7] 0.147 | [8] 0.131 | [9] 0.019

GOLGA2 (UniProt Q08379)
inactive: erlotinib 0.019 | [1] 0.008 | [2] -0.118 | [3] -0.012 | [4] -0.029 | [5] 0.092 | [6] -0.045 | [7] 0.007 | [8] -0.082 | [9] -0.108

GPS1 isoform 7 (UniProt Q13098)
inactive: erlotinib -0.013 | [1] 0.033 | [2] 0 | [3] -0.013 | [4] -0.007 | [5] 0.007 | [6] -0.007 | [7] 0.021 | [8] -0.018 | [9] 0.011

GINS4 (UniProt Q9BRT9)
inactive: erlotinib 0.031 | [1] 0.098 | [2] 0.043 | [3] 0.029 | [4] -0.023 | [5] 0 | [6] 0.014 | [7] 0.03 | [8] -0.012 | [9] 0.048

GOSR1 (UniProt O95249)
inactive: erlotinib 0.015 | [1] 0.068 | [2] 0.007 | [3] 0.03 | [4] -0.042 | [5] 0.068 | [6] 0.017 | [7] -0.025 | [8] 0.039 | [9] -0.068

GPBP1 isoform 2 (UniProt Q86WP2)
inactive: erlotinib 0.214 | [1] -0.103 | [2] -0.013 | [3] 0.099 | [4] 0.006 | [5] -0.059 | [6] -0.001 | [7] -0.055 | [8] -0.033 | [9] 0.045

GOLGA5 (UniProt Q8TBA6)
inactive: erlotinib -0.021 | [1] 0.024 | [2] 0.031 | [3] -0.012 | [4] 0.003 | [5] 0.065 | [6] -0.016 | [7] -0.068 | [8] -0.044 | [9] 0.007

GORASP2 isoform 3 (UniProt Q9H8Y8)
inactive: erlotinib 0 | [1] 0.21 | [2] -0.021 | [3] -0.146 | [4] -0.11 | [5] 0.013 | [6] -0.023 | [7] 0.136 | [8] 0.009 | [9] -0.114

GLA (UniProt P06280)
inactive: erlotinib 0.016 | [1] 0.019 | [2] -0.018 | [3] -0.021 | [4] -0.018 | [5] -0.017 | [6] -0.034 | [7] -0.032 | [8] 0.026 | [9] 0.045

GRSF1 (UniProt Q12849)
inactive: erlotinib -0.044 | [1] 0 | [2] -0.057 | [3] -0.152 | [4] -0.03 | [5] -0.005 | [6] -0.025 | [7] -0.079 | [8] -0.079 | [9] -0.033

GRK2 (UniProt P25098)
inactive: erlotinib 0.015 | [1] 0.044 | [2] 0.028 | [3] 0.009 | [4] 0.052 | [5] -0.003 | [6] 0.01 | [7] 0.033 | [8] -0.016 | [9] 0.086

GPAT3 (UniProt Q53EU6)
inactive: erlotinib -0.048 | [1] 0.147 | [2] -0.085 | [3] 0.028 | [4] 0 | [5] 0.057 | [6] -0.001 | [7] -0.038 | [8] 0.011 | [9] 0.053

GINS3 (UniProt Q9BRX5)
inactive: erlotinib -0.005 | [1] 0.117 | [2] 0.054 | [3] -0.027 | [4] -0.022 | [5] 0.012 | [6] 0.019 | [7] 0.042 | [8] 0.025 | [9] -0.026

GMFB (UniProt P60983)
inactive: erlotinib 0.016 | [1] 0.044 | [2] 0.063 | [3] -0.003 | [4] 0.004 | [5] -0.015 | [6] 0.041 | [7] -0.004 | [8] -0.023 | [9] 0.014

GPR107 (UniProt Q5VW38)
inactive: erlotinib -0.049 | [1] -0.024 | [2] 0.028 | [3] 0 | [4] -0.018 | [5] 0.006 | [6] 0.011 | [7] -0.029 | [8] -0.013 | [9] 0.057

Retrieved one by one from the list above, two records:
GINS3 (UniProt Q9BRX5)
inactive: erlotinib -0.005 | [1] 0.117 | [2] 0.054 | [3] -0.027 | [4] -0.022 | [5] 0.012 | [6] 0.019 | [7] 0.042 | [8] 0.025 | [9] -0.026

GRK2 (UniProt P25098)
inactive: erlotinib 0.015 | [1] 0.044 | [2] 0.028 | [3] 0.009 | [4] 0.052 | [5] -0.003 | [6] 0.01 | [7] 0.033 | [8] -0.016 | [9] 0.086

(cont.)

GNB4 (UniProt Q9HAV0)
inactive: erlotinib 0.008 | [1] 0.028 | [2] -0.105 | [3] 0.008 | [4] -0.24 | [5] -0.016 | [6] 0.003 | [7] -0.087 | [8] -0.106 | [9] 0.026

GNAQ (UniProt P50148)
inactive: erlotinib -0.007 | [1] -0.003 | [2] 0.023 | [3] 0.055 | [4] 0.022 | [5] -0.014 | [6] -0.017 | [7] -0.026 | [8] -0.033 | [9] 0.085

GPR89A (UniProt B7ZAQ6)
inactive: erlotinib -0.147 | [1] 0.048 | [2] 0.088 | [3] 0.058 | [4] 0.02 | [5] 0.012 | [6] -0.018 | [7] -0.036 | [8] -0.071 | [9] 0.02

GNL1 (UniProt P36915)
inactive: erlotinib 0.044 | [1] 0.046 | [2] 0.048 | [3] -0.028 | [4] 0.037 | [5] -0.004 | [6] 0.074 | [7] 0 | [8] 0.035 | [9] -0.055

GPD1L (UniProt Q8N335)
inactive: erlotinib 0.047 | [1] 0.11 | [2] 0.032 | [3] 0.099 | [4] 0.078 | [5] -0.137 | [6] 0.009 | [7] 0 | [8] -0.001 | [9] 0.041

GPR108 (UniProt Q9NPR9)
inactive: erlotinib -0.031 | [1] 0.004 | [2] -0.042 | [3] 0.036 | [4] 0.005 | [5] 0.036 | [6] 0.019 | [7] -0.006 | [8] 0.016 | [9] 0.05
